# The supplement of paper PMC8728848
# The other results are listed elsewhere or left out.
# What was measured:
# Assay in all cases: glycan array binding signal (z-score within array); higher = stronger binding
# Settings in all cases: glycan notation: IUPAC condensed, linker removed
# [1] = target: Fuc(a1-2)Gal6S(b1-3)GlcNAc
# In short: (§1)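 Glycan array data came from 3228 arrays in the Consortium for Functional Glycomics database, and only arrays with an available protein sequence were kept. Glycan names were put into IUPAC-condensed notation, and columns mapping to the same glycan were averaged. The binding signal is a within-array Z-score, averaged across arrays of one protein sequence run at different concentrations or buffers and across linkers. A negative Z-score can be read as non-binding.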
# [2] = target: Fuc(a1-2)Gal6S(b1-3)GlcNAc6S
# In short: as §1
# [3] = target: Fuc(a1-2)Gal6S(b1-4)Glc
# In short: as §1
# [4] = target: Fuc(a1-2)Gal6S(b1-4)Glc6S
# In short: as §1
# [5] = target: Fuc(a1-2)[Gal(a1-3)]Gal
# In short: as §1
# [6] = target: Fuc(a1-2)[Gal(a1-3)]Gal(b1-3)GalNAc
# In short: as §1
# [7] = target: Fuc(a1-2)[Gal(a1-3)]Gal(b1-3)GalNAc(b1-3)Gal(a1-4)Gal(b1-4)Glc
# In short: as §1
# [8] = target: Fuc(a1-2)[Gal(a1-3)]Gal(b1-3)GlcNAc
# In short: as §1
# [9] = target: Fuc(a1-2)[Gal(a1-3)]Gal(b1-3)GlcNAc(b1-2)Man(a1-3)[Fuc(a1-2)[Gal(a1-3)]Gal(b1-3)GlcNAc(b1-2)Man(a1-6)]Man(b1-4)GlcNAc(b1-4)GlcNAc
# In short: as §1
# [10] = target: Fuc(a1-2)[Gal(a1-3)]Gal(b1-3)GlcNAc(b1-2)Man(a1-3)[Fuc(a1-2)[Gal(a1-3)]Gal(b1-3)GlcNAc(b1-2)Man(a1-6)]Man(b1-4)GlcNAc(b1-4)[Fuc(a1-6)]GlcNAc
# In short: as §1
# [11] = target: Fuc(a1-2)[Gal(a1-3)]Gal(b1-3)GlcNAc(b1-3)GalNAc
# In short: as §1
# [12] = target: Fuc(a1-2)[Gal(a1-3)]Gal(b1-3)GlcNAc(b1-6)GalNAc
# In short: as §1
# [13] = target: Fuc(a1-2)[Gal(a1-3)]Gal(b1-4)Glc
# In short: as §1
# [14] = target: Fuc(a1-2)[Gal(a1-3)]Gal(b1-4)GlcNAc
# In short: as §1
# [15] = target: Fuc(a1-2)[Gal(a1-3)]Gal(b1-4)GlcNAc(b1-2)Man
# In short: as §1
# [16] = target: Fuc(a1-2)[Gal(a1-3)]Gal(b1-4)GlcNAc(b1-2)Man(a1-3)[Fuc(a1-2)[Gal(a1-3)]Gal(b1-4)GlcNAc(b1-2)Man(a1-6)]Man(b1-4)GlcNAc(b1-4)GlcNAc
# In short: as §1
# [17] = target: Fuc(a1-2)[Gal(a1-3)]Gal(b1-4)GlcNAc(b1-2)Man(a1-3)[Fuc(a1-2)[Gal(a1-3)]Gal(b1-4)GlcNAc(b1-2)Man(a1-6)]Man(b1-4)GlcNAc(b1-4)[Fuc(a1-6)]GlcNAc
# In short: as §1
# [18] = target: Fuc(a1-2)[Gal(a1-3)]Gal(b1-4)GlcNAc(b1-3)GalNAc
# In short: as §1
# [19] = target: Fuc(a1-2)[Gal(a1-3)]Gal(b1-4)GlcNAc(b1-3)[Fuc(a1-2)[Gal(a1-3)]Gal(b1-4)GlcNAc(b1-6)]GalNAc
# In short: as §1
# [20] = target: Fuc(a1-2)[Gal(a1-3)]Gal(b1-4)GlcNAc(b1-6)GalNAc
# In short: as §1
# [21] = target: Fuc(a1-2)[Gal(a1-3)]Gal(b1-4)[Fuc(a1-3)]Glc
# In short: as §1
# [22] = target: Fuc(a1-2)[Gal(a1-3)]Gal(b1-4)[Fuc(a1-3)]GlcNAc
# In short: as §1
# [23] = target: Fuc(a1-2)[Gal(a1-3)]Gal(b1-4)[Fuc(a1-3)]GlcNAc(b1-3)GalNAc
# In short: as §1
# [24] = target: Fuc(a1-2)[Gal(a1-4)]Gal(b1-4)GlcNAc
# In short: as §1
# [25] = target: Fuc(a1-2)[GalNAc(a1-3)]Gal
# In short: as §1
# [26] = target: Fuc(a1-2)[GalNAc(a1-3)]Gal(b1-3)GalNAc(a1-3)[Fuc(a1-2)]Gal(b1-4)GlcNAc
# In short: as §1
# [27] = target: Fuc(a1-2)[GalNAc(a1-3)]Gal(b1-3)GalNAc(b1-3)Gal(a1-4)Gal(b1-4)Glc
# In short: as §1
# [28] = target: Fuc(a1-2)[GalNAc(a1-3)]Gal(b1-3)GlcNAc
# In short: as §1
# [29] = target: Fuc(a1-2)[GalNAc(a1-3)]Gal(b1-3)GlcNAc(b1-2)Man(a1-3)[Fuc(a1-2)[GalNAc(a1-3)]Gal(b1-3)GlcNAc(b1-2)Man(a1-6)]Man(b1-4)GlcNAc(b1-4)GlcNAc
# In short: as §1
# [30] = target: Fuc(a1-2)[GalNAc(a1-3)]Gal(b1-3)GlcNAc(b1-2)Man(a1-3)[Fuc(a1-2)[GalNAc(a1-3)]Gal(b1-3)GlcNAc(b1-2)Man(a1-6)]Man(b1-4)GlcNAc(b1-4)[Fuc(a1-6)]GlcNAc
# In short: as §1
# [31] = target: Fuc(a1-2)[GalNAc(a1-3)]Gal(b1-3)GlcNAc(b1-3)GalNAc
# In short: as §1
# [32] = target: Fuc(a1-2)[GalNAc(a1-3)]Gal(b1-3)GlcNAc(b1-6)GalNAc
# In short: as §1
# [33] = target: Fuc(a1-2)[GalNAc(a1-3)]Gal(b1-4)Glc
# In short: as §1
# [34] = target: Fuc(a1-2)[GalNAc(a1-3)]Gal(b1-4)GlcNAc
# In short: as §1
# [35] = target: Fuc(a1-2)[GalNAc(a1-3)]Gal(b1-4)GlcNAc(b1-2)Man
# In short: as §1
# [36] = target: Fuc(a1-2)[GalNAc(a1-3)]Gal(b1-4)GlcNAc(b1-2)Man(a1-3)[Fuc(a1-2)[GalNAc(a1-3)]Gal(b1-4)GlcNAc(b1-2)Man(a1-6)]Man(b1-4)GlcNAc(b1-4)GlcNAc
# In short: as §1
# [37] = target: Fuc(a1-2)[GalNAc(a1-3)]Gal(b1-4)GlcNAc(b1-2)Man(a1-3)[Fuc(a1-2)[GalNAc(a1-3)]Gal(b1-4)GlcNAc(b1-2)Man(a1-6)]Man(b1-4)GlcNAc(b1-4)[Fuc(a1-6)]GlcNAc
# In short: as §1
# [38] = target: Fuc(a1-2)[GalNAc(a1-3)]Gal(b1-4)GlcNAc(b1-3)Gal(b1-4)GlcNAc
# In short: as §1
# [39] = target: Fuc(a1-2)[GalNAc(a1-3)]Gal(b1-4)GlcNAc(b1-3)Gal(b1-4)GlcNAc(b1-3)Gal(b1-4)GlcNAc
# In short: as §1
# [40] = target: Fuc(a1-2)[GalNAc(a1-3)]Gal(b1-4)GlcNAc(b1-3)GalNAc
# In short: as §1
# [41] = target: Fuc(a1-2)[GalNAc(a1-3)]Gal(b1-4)GlcNAc(b1-3)[Fuc(a1-2)[GalNAc(a1-3)]Gal(b1-4)GlcNAc(b1-6)]GalNAc
# In short: as §1
# [42] = target: Fuc(a1-2)[GalNAc(a1-3)]Gal(b1-4)GlcNAc(b1-6)GalNAc
# In short: as §1
# [43] = target: Fuc(a1-2)[GalNAc(a1-3)]Gal(b1-4)[Fuc(a1-3)]GlcNAc
# In short: as §1
# [44] = target: Fuc(a1-2)[GalNAc(a1-3)]Gal(b1-4)[Fuc(a1-3)]GlcNAc(b1-3)GalNAc
# In short: as §1
# [45] = target: Fuc(a1-2)[GalNAc(a1-4)]Gal(b1-4)GlcNAc
# In short: as §1
binder,measurement,setting,value
"AT1G77380(17) (Arabidopsis thaliana), Q39134 (protein) MVQNHQTVLAVDMPQTGGSKYLDDDGKNKRTGSVWTASAHIITAVIGSGVLSLAWATAQLGWLAGPVVMLLFSAVTYFTSSLLAACYRSGDPISGKRNYTYMDAVRSNLGGVKVTLCGIVQYLNIFGVAIGYTIASAISMMAIKRSNCFHKSGGKDPCHMNSNPYMIAFGLVQILFSQIPDFDQLWWLSILAAVMSFTYSSAGLALGIAQVVVNGKVKGSLTGISIGAVTETQKIWRTFQALGDIAFAYSYSIILIEIQDTVKSPPSEEKTMKKATLVSVSVTTMFYMLCGCMGYAAFGDLSPGNLLTGFGFYNPYWLLDIANAAIVIHLIGAYQVYCQPLFAFIEKQASIQFPDSEFIAKDIKIPIPGFKPLRLNVFRLIWRTVFVIITTVISMLLPFFNDVVGLLGALGFWPLTVYFPVEMYIAQKKIPRWSTRWVCLQVFSLGCLVVSIAAAAGSIAGVLLDLKSYKPFRSEY",glycan array binding signal (z-score),[1],-0.387
same,glycan array binding signal (z-score),[2],0.89
same,glycan array binding signal (z-score),[3],-0.068
same,glycan array binding signal (z-score),[4],0.92
same,glycan array binding signal (z-score),[5],0.342
same,glycan array binding signal (z-score),[6],-0.039
same,glycan array binding signal (z-score),[7],0.171
same,glycan array binding signal (z-score),[8],-0.337
same,glycan array binding signal (z-score),[9],-0.365
same,glycan array binding signal (z-score),[10],0.12
same,glycan array binding signal (z-score),[11],-0.109
same,glycan array binding signal (z-score),[12],-0.075
same,glycan array binding signal (z-score),[13],-0.473
same,glycan array binding signal (z-score),[14],-0.468
same,glycan array binding signal (z-score),[15],-0.68
same,glycan array binding signal (z-score),[16],-0.646
same,glycan array binding signal (z-score),[17],2.16
same,glycan array binding signal (z-score),[18],0.897
same,glycan array binding signal (z-score),[19],0.458
same,glycan array binding signal (z-score),[20],-0.886
same,glycan array binding signal (z-score),[21],-0.822
same,glycan array binding signal (z-score),[22],-0.151
same,glycan array binding signal (z-score),[23],-0.782
same,glycan array binding signal (z-score),[24],1.72
same,glycan array binding signal (z-score),[25],1.61
same,glycan array binding signal (z-score),[26],-0.36
same,glycan array binding signal (z-score),[27],4.03
same,glycan array binding signal (z-score),[28],-0.205
same,glycan array binding signal (z-score),[29],-0.86
same,glycan array binding signal (z-score),[30],-0.716
same,glycan array binding signal (z-score),[31],0.081
same,glycan array binding signal (z-score),[32],-0.395
same,glycan array binding signal (z-score),[33],-0.659
same,glycan array binding signal (z-score),[34],-0.628
same,glycan array binding signal (z-score),[35],1.32
same,glycan array binding signal (z-score),[36],-0.981
same,glycan array binding signal (z-score),[37],0.816
same,glycan array binding signal (z-score),[38],-0.481
same,glycan array binding signal (z-score),[39],-0.453
same,glycan array binding signal (z-score),[40],-0.519
same,glycan array binding signal (z-score),[41],-1
same,glycan array binding signal (z-score),[42],-0.29
same,glycan array binding signal (z-score),[43],-0.751
same,glycan array binding signal (z-score),[44],2.44
same,glycan array binding signal (z-score),[45],-0.894

# Shown with bars between the fields: part of the list above.
binder | measurement | setting | value
AT1G77380(17) (Arabidopsis thaliana), Q39134 (protein) MVQNHQTVLAVDMPQTGGSKYLDDDGKNKRTGSVWTASAHIITAVIGSGVLSLAWATAQLGWLAGPVVMLLFSAVTYFTSSLLAACYRSGDPISGKRNYTYMDAVRSNLGGVKVTLCGIVQYLNIFGVAIGYTIASAISMMAIKRSNCFHKSGGKDPCHMNSNPYMIAFGLVQILFSQIPDFDQLWWLSILAAVMSFTYSSAGLALGIAQVVVNGKVKGSLTGISIGAVTETQKIWRTFQALGDIAFAYSYSIILIEIQDTVKSPPSEEKTMKKATLVSVSVTTMFYMLCGCMGYAAFGDLSPGNLLTGFGFYNPYWLLDIANAAIVIHLIGAYQVYCQPLFAFIEKQASIQFPDSEFIAKDIKIPIPGFKPLRLNVFRLIWRTVFVIITTVISMLLPFFNDVVGLLGALGFWPLTVYFPVEMYIAQKKIPRWSTRWVCLQVFSLGCLVVSIAAAAGSIAGVLLDLKSYKPFRSEY | glycan array binding signal (z-score) | [4] | 0.92
same | glycan array binding signal (z-score) | [20] | -0.886
same | glycan array binding signal (z-score) | [39] | -0.453
